No constants are given. Whether binding was seen depends on the method and setting. Binding calls can cover weak binding; strength is not graded here.
Key:
[1] = target: GFP-TAF10 (human) (UniProt Q12962); assay: RNA immunoprecipitation (GFP-RIP) with RT-qPCR; GFP-Trap agarose beads, polysome extracts of HeLa lines expressing N-terminally GFP-tagged TFIID subunits, cycloheximide, 4 h at 4 °C; the partner is scored through enrichment of its mRNA over mock IP (more than fourfold of the control PPIB)
[2] = target: GFP-TAF12 (human) (UniProt Q16514); assay: as above
[3] = target: GFP-TAF2 (human) (UniProt Q6P1X5); assay: as above
[4] = target: GFP-TAF4 (human) (UniProt O00268); assay: as above
[5] = target: GFP-TAF5 (human) (UniProt Q15542); assay: as above
[6] = target: GFP-TAF8 (human) (UniProt Q7Z7C8); assay: as above
[7] = target: GFP-TBP (human) (UniProt P20226); assay: as above
[8] = target: TAF10 (human (endogenous in HeLa)) (UniProt Q12962); assay: RNA immunoprecipitation (RIP) with RT-qPCR; antibody against the endogenous bait on protein G Dynabeads, HeLa polysome extract, cycloheximide (puromycin as control), overnight 4 °C, washes with 350 mM KCl; the partner is scored through enrichment of its mRNA (nascent chain on the ribosome)
[9] = target: TAF6 (human (endogenous in HeLa)) (UniProt P49848); assay: as above
[10] = target: TAF7 (human (endogenous in HeLa)) (UniProt Q15545); assay: as above

By UniProt entry, the sequences of proteins in these tests, tags left out.
UniProt Q12962: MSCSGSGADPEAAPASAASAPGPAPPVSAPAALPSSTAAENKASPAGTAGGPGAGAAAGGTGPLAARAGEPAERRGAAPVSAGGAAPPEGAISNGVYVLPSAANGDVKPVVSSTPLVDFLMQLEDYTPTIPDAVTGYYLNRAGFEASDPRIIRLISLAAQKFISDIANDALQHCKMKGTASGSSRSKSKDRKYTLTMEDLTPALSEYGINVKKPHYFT
UniProt Q16514: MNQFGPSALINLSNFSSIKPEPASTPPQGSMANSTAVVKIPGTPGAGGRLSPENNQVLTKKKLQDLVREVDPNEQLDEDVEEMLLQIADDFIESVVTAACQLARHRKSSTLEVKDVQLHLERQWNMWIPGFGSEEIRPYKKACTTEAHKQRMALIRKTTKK
UniProt Q6P1X5: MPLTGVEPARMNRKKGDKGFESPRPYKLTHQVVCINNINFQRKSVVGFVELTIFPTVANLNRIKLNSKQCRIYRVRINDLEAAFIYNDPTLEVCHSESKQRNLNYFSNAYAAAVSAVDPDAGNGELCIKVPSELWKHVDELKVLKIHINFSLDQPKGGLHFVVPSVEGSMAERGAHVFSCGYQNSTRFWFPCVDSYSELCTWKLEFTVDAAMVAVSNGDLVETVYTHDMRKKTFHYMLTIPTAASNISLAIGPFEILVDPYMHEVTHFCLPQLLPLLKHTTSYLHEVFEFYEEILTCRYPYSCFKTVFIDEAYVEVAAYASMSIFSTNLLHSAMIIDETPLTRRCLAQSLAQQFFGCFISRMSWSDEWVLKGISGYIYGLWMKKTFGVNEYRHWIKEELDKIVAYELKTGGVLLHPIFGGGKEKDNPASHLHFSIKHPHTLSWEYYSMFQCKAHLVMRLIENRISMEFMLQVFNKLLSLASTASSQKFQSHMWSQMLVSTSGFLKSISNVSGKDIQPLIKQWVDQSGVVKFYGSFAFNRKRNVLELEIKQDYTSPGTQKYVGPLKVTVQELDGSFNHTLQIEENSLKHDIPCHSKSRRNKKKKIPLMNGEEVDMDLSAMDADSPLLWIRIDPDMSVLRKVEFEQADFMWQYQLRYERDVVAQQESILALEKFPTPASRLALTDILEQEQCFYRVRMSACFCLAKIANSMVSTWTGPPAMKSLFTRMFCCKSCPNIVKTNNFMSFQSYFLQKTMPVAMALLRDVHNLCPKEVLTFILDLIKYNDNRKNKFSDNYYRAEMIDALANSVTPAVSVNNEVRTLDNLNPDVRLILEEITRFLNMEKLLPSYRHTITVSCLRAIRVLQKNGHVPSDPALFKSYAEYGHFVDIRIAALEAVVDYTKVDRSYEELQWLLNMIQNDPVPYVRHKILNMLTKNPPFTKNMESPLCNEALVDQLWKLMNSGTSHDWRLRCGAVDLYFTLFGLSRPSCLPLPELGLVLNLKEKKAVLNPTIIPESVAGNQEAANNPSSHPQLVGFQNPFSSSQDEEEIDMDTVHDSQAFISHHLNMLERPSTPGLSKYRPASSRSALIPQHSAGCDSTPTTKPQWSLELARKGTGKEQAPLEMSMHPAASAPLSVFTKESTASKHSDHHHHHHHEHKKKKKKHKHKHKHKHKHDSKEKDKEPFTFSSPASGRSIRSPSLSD
UniProt O00268: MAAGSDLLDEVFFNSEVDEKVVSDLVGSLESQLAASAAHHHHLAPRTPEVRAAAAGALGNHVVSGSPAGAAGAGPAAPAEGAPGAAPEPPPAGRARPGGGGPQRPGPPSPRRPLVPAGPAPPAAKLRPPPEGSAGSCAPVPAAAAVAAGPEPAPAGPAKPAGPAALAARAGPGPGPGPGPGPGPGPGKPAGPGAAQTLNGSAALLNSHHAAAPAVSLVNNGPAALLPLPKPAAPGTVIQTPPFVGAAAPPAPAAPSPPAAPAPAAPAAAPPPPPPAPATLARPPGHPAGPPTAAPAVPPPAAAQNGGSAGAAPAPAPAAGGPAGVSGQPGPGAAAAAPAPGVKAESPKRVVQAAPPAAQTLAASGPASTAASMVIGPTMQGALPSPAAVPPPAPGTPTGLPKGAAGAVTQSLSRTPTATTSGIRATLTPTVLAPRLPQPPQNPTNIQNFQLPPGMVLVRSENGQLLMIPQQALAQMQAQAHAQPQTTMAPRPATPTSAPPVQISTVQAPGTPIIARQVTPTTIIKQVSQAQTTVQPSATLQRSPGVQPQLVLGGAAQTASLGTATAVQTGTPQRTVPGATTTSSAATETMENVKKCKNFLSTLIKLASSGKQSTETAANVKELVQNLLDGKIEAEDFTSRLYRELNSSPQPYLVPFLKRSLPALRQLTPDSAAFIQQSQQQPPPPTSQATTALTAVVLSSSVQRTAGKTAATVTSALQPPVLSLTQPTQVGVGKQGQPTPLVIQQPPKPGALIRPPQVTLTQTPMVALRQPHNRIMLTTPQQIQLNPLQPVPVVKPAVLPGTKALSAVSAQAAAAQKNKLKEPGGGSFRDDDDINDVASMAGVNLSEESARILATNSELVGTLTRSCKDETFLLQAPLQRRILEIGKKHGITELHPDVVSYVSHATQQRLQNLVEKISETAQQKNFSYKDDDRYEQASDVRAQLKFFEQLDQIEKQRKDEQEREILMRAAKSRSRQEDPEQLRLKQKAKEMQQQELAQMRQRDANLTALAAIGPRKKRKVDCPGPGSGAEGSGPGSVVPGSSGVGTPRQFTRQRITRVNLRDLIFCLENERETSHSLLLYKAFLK
UniProt Q15542: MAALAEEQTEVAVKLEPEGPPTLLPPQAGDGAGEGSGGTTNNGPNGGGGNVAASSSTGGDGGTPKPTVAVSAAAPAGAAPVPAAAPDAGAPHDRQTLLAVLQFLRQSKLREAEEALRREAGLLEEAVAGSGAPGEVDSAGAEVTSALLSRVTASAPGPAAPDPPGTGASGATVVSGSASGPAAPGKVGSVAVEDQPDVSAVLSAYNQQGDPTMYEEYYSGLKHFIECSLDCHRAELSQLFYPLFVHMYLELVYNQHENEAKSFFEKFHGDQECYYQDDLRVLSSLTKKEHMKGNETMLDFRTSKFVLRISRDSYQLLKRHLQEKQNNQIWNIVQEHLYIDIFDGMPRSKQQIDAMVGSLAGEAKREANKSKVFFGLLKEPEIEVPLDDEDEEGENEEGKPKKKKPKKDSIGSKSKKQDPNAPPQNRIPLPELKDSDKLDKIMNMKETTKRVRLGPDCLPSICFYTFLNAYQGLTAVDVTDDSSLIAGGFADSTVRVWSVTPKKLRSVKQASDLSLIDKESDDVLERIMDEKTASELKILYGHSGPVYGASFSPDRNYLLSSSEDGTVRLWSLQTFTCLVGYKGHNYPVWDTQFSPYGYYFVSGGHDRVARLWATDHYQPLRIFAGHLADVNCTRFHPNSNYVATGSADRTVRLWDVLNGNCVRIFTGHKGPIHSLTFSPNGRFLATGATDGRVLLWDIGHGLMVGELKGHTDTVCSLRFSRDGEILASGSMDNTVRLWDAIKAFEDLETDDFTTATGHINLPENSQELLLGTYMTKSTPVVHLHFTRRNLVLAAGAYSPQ
UniProt Q7Z7C8: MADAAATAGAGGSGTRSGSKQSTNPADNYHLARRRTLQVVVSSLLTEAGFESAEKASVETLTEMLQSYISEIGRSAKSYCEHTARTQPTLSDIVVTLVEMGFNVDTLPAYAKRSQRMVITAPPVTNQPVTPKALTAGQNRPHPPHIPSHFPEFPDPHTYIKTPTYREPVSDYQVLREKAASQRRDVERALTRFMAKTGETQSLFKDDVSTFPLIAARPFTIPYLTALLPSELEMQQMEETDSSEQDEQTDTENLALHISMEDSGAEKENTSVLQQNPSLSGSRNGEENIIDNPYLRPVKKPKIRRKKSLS
UniProt P20226: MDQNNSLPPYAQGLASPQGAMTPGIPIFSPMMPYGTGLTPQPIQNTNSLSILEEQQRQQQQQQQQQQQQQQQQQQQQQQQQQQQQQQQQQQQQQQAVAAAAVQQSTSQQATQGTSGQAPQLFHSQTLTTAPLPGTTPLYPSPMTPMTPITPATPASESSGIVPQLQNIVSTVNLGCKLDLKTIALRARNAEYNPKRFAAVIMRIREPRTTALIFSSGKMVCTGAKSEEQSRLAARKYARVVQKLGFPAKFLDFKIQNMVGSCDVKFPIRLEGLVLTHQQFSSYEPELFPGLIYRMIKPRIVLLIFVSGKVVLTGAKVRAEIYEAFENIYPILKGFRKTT
UniProt P49848: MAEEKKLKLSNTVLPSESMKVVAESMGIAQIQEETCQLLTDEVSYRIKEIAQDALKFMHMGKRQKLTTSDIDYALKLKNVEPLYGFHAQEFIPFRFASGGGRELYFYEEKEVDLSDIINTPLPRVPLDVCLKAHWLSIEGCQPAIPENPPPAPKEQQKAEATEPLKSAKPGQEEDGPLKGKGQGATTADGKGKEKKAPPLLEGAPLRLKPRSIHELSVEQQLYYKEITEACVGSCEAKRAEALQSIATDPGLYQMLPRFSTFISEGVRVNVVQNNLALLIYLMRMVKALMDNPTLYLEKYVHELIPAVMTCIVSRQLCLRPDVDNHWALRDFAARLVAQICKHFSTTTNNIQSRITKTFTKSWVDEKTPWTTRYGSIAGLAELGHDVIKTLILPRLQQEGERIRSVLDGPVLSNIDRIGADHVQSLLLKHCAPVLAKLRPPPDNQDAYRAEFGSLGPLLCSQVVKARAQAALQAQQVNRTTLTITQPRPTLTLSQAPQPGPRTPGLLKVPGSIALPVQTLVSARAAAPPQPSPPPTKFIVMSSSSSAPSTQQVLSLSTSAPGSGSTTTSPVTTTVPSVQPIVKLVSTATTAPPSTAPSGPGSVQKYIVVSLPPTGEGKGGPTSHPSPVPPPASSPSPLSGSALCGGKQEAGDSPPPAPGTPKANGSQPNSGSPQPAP
UniProt Q15545: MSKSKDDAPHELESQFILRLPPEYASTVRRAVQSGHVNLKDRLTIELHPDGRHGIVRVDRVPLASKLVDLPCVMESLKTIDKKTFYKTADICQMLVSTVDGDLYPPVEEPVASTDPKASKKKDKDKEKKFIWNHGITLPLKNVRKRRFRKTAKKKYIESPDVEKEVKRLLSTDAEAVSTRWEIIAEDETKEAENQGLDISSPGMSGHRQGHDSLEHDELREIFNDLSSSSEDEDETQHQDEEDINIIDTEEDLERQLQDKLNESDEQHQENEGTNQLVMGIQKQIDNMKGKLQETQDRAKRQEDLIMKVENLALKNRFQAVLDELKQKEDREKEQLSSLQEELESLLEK

binding [1]: binds
binding [2]: binds
binding [3]: binds
binding [4]: binds
binding [5]: binds
binding [6]: binds
binding [7]: binds
binding [8]: binds
binding [9]: binds
binding [10]: binds
Substance: TAF1 (from UniProt P21675-1)

— paper PMC10442232
